Laboratory results reported in publication PMC6851490, “Target highlights in CASP13: Experimental target structures through the eyes of their authors” (Proteins, 2019).

Biological target: gp37 (distal part) of the Salmonella phage S16 long tail fiber (Salmonella phage S16)
Test: crystal structure; distal part of gp37 connected to gp38, phage S16, PDB 6F45, 1.70 Å; both purified

B1: gp38 adhesin of the Salmonella phage S16 long tail fiber (protein, UniProt M1EBB2 1-249)
chain: MAVQGPWVGSSYVAETGQNWASLAANELRVTERPFWISSFIGRSKEEIWEWTGENHSFNKDWLIGELRNRGGTPVVINIRAHQVSYTPGAPLFEFPGDLPNAYITLNIYADIYGRGGTGGVAYLGGNPGGDCIHNWIGNRLRINNQGWICGGGGGGGGFRVGHTEAGGGGGRPLGAGGVSSLNLNGDNATLGAPGRGYQLGNDYAGNGGDVGNPGSASSAEMGGGAAGRAVVGTSPQWINVGNIAGSWL
binding: binds

Results are given in words; binding and its absence hold for the method and conditions named. A result given as binding can be weak or reduced; the word gives no strength.
